Laboratory results as given in publication PMC10501995.

By UniProt entry, the sequences of proteins in these tests, tags left out. Where a name states a change or a piece, a line headed by the entry shows the natural chain unless it says otherwise. Chains listed by the source or under a name are the forms on record and can include a tag or linker.
UniProt P40227: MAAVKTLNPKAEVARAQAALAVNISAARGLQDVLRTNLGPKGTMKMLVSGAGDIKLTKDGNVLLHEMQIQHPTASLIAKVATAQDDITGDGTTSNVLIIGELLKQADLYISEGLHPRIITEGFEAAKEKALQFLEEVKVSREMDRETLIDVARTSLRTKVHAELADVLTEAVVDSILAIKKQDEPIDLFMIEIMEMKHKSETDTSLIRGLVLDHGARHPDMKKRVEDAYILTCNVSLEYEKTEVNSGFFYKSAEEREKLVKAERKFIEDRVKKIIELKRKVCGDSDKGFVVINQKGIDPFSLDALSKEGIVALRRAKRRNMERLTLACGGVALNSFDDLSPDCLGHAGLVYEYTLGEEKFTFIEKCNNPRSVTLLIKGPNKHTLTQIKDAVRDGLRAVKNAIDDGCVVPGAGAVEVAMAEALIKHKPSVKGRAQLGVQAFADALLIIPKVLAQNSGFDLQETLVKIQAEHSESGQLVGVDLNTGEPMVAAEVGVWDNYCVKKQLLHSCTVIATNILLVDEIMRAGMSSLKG
UniProt P50990: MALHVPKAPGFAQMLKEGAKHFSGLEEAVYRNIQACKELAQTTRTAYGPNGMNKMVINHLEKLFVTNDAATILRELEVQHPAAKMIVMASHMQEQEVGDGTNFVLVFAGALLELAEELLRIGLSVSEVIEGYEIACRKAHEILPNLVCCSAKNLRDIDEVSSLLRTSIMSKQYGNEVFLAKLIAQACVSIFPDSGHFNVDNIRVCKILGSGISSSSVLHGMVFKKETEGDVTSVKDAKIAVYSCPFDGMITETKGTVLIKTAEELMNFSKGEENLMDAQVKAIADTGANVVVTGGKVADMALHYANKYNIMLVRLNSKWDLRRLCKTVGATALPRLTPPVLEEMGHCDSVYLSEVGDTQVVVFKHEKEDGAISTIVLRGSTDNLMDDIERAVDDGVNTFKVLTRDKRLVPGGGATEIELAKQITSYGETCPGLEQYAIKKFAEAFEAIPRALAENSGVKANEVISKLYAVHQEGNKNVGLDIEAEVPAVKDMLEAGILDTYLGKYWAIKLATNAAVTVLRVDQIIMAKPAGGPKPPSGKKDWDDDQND
HERC2 (endogenous, rabbit reticulocyte lysate) (G1SRN9, form named): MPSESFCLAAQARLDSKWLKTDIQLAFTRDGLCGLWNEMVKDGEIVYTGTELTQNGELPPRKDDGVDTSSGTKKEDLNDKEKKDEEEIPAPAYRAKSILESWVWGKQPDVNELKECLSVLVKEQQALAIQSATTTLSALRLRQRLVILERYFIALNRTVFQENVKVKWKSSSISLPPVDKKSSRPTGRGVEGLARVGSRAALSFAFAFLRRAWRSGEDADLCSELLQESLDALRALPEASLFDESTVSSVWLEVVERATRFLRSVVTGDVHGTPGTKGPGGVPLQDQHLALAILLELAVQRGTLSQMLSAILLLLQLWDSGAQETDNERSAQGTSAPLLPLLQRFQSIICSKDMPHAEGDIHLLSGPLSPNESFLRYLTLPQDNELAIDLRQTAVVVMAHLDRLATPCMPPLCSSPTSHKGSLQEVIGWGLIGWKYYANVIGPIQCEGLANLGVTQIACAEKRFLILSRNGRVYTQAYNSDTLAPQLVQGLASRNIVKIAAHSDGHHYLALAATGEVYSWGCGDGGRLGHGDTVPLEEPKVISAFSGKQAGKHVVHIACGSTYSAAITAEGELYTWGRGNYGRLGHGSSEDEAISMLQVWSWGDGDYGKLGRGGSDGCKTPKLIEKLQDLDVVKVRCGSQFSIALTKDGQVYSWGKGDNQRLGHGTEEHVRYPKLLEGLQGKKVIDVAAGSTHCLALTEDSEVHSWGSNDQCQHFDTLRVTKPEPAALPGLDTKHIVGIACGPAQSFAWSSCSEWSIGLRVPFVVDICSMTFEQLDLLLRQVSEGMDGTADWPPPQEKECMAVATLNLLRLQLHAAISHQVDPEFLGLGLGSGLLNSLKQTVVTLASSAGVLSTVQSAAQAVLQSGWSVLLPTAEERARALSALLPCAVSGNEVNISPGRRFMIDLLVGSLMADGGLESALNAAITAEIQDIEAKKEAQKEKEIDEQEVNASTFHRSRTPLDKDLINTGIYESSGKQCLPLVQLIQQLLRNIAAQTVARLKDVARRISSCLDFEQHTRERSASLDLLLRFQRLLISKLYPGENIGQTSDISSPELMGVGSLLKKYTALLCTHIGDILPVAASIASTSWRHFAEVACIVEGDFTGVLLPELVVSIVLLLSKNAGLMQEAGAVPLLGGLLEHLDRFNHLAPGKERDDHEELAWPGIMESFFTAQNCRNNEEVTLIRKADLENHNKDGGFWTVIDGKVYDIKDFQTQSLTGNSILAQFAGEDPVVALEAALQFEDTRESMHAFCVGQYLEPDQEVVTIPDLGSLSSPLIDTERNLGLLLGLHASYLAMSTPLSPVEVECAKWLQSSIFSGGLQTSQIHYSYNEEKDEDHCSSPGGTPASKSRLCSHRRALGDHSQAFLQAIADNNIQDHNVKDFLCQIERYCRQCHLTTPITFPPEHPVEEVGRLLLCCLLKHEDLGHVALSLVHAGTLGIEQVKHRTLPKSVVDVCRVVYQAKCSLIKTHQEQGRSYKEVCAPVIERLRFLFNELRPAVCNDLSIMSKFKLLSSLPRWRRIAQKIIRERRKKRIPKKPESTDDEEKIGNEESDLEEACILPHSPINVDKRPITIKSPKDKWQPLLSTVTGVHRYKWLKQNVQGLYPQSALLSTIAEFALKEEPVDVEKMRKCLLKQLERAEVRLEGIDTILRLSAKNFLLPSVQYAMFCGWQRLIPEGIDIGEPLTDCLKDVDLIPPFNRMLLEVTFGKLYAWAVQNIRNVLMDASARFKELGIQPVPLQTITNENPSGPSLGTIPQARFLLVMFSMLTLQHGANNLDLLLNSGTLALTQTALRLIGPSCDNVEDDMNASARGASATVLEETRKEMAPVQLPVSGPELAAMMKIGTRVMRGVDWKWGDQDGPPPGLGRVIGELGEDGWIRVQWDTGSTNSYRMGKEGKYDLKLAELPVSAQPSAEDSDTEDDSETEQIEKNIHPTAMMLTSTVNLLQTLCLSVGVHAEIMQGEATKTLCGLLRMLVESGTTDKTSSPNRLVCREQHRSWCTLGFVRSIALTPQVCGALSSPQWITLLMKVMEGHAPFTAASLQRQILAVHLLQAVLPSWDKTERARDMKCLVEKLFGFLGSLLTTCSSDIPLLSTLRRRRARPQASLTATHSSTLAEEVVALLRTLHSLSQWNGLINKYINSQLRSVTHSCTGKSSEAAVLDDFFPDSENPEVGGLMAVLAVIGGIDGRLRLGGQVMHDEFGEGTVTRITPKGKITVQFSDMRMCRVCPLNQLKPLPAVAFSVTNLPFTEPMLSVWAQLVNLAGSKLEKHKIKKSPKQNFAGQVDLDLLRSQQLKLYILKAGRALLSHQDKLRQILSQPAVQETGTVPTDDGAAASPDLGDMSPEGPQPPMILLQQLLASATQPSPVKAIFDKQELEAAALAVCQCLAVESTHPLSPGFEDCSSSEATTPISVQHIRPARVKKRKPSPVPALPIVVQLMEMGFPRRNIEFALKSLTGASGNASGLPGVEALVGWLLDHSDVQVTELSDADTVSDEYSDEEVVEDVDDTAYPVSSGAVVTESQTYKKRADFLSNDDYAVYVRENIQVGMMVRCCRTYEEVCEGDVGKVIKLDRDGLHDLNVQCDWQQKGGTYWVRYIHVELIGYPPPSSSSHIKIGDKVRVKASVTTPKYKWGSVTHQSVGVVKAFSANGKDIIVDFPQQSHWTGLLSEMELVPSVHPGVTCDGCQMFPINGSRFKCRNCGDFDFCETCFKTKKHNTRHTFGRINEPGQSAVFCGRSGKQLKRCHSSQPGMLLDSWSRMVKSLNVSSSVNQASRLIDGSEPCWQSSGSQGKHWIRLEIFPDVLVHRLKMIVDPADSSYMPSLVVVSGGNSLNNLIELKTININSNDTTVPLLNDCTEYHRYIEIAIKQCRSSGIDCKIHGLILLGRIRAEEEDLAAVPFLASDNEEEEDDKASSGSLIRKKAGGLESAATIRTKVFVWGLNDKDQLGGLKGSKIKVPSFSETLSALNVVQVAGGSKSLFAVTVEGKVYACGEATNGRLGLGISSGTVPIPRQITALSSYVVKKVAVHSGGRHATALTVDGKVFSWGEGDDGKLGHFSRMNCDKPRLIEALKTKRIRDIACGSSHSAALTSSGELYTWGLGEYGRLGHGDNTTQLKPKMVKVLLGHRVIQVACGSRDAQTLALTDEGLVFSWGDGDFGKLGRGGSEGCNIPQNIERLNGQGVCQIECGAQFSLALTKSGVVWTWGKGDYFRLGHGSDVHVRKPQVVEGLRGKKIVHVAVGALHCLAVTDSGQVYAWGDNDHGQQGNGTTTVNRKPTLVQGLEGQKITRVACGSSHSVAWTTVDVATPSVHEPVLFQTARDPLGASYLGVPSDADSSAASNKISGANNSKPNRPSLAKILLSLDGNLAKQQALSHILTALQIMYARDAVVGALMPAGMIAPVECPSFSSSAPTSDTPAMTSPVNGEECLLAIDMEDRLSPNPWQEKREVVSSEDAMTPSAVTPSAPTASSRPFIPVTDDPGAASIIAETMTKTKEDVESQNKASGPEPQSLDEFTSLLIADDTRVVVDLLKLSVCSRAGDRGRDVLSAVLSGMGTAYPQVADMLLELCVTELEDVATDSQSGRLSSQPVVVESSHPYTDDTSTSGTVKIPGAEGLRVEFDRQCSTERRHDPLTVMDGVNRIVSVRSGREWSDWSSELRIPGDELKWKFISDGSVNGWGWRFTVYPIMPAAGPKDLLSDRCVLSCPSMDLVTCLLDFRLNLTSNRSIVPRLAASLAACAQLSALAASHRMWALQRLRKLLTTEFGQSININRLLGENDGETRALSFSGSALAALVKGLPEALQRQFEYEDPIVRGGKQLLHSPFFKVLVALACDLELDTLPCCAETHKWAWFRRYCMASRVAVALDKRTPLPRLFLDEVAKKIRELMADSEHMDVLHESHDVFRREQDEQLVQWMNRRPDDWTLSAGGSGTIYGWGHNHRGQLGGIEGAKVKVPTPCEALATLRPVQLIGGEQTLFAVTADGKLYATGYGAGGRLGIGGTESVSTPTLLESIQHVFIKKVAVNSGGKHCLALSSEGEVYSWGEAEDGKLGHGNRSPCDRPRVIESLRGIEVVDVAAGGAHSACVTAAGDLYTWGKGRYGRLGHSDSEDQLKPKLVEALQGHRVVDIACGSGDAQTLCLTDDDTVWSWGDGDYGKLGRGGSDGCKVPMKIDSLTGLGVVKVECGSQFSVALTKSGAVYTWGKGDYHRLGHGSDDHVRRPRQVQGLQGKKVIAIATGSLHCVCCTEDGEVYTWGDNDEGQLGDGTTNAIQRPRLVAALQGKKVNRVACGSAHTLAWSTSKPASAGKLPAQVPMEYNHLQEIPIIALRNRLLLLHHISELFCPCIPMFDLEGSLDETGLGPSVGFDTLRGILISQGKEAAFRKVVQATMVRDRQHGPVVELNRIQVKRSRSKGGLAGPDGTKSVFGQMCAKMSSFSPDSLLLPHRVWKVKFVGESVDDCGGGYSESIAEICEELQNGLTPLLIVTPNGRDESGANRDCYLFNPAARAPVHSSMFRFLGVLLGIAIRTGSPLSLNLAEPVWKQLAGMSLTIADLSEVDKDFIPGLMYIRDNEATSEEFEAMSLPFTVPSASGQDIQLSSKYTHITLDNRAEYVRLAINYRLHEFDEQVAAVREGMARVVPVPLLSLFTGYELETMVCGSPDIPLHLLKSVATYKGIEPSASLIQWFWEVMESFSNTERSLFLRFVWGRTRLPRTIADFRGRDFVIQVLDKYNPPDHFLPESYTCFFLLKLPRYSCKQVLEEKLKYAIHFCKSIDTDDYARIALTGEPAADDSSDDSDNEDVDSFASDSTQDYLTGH

Columns and labels:
[1] = target: CCT6A-TwinStrep (human) (UniProt P40227); assay: affinity purification with mass spectrometry; CCT-TwinStrep translated in RRL (600 ul), bound to StrepTactin Sepharose under native conditions, 4 °C 1.5 h, 5 washes in PSB125 (50 mM HEPES-KOH, 125 mM KOAc, 2 mM Mg(OAc)2); label-free quantitative MS against mock, CCT3-3xFLAG and CCT7-3xFLAG controls
[2] = target: CCT8-TwinStrep (human) (UniProt P50990); assay: as above

HERC2 (endogenous, rabbit reticulocyte lysate) (from UniProt G1SRN9 1-4806) (enzyme)
binding [1]: no binding | binding [2]: no binding

These are yes or no findings as the source states them, for the method shown. In cells and extracts the contact can be indirect. These calls come from enrichment with a bait or labelling near it, and not all partners need be listed. No binding means not detected with the bait.
